Several values for one entry are separate records, joined by “and”; a condition that tells them apart may be missing. Equal entries are not always repeated. Out of some 580,000 compounds screened, about 6,100 (1.1%) were called active. Inconclusive means that the source gave no clear call. Such entries were picked first, then a sample of the others. Calls come from the whole dose curve; as a rule, active = well fitted inhibition curve with a large enough effect; inconclusive = small, poorly fitted or top-dose-only effect, or another doubt; inactive = no such curve, though single readings can be large or run the other way. Where the call is inconclusive, the potency comes from a doubtful curve fit.
Target: Polyunsaturated fatty acid lipoxygenase ALOX12 (Homo sapiens) (UniProt P18054)
Assay: Primary qHTS assay for inhibitors of human arachidonate 12S-lipoxygenase (ALOX12): Round 2
Conditions: purified 12hLO, xylenol orange hydroperoxide absorbance; activity change, negative = inhibition: at 108 µM (top of the series)
Summary of the method: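 Hydroperoxide product was detected by ferrous iron/xylenol orange as the 573 to 405 nm absorbance ratio. Arachidonic acid at 40 uM (final) was turned over for 30 min at room temperature by 150 nM human 12hLO, pH 7.0 Hepes buffer, after 15 min compound preincubation.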
% is set by controls: 0 for no effect and ±100 for the full control effect; potency is the fitted concentration of half-maximal effect.

Amino acid sequences for entries named in this document (tags omitted).
UniProt P18054, whole entry, looked up: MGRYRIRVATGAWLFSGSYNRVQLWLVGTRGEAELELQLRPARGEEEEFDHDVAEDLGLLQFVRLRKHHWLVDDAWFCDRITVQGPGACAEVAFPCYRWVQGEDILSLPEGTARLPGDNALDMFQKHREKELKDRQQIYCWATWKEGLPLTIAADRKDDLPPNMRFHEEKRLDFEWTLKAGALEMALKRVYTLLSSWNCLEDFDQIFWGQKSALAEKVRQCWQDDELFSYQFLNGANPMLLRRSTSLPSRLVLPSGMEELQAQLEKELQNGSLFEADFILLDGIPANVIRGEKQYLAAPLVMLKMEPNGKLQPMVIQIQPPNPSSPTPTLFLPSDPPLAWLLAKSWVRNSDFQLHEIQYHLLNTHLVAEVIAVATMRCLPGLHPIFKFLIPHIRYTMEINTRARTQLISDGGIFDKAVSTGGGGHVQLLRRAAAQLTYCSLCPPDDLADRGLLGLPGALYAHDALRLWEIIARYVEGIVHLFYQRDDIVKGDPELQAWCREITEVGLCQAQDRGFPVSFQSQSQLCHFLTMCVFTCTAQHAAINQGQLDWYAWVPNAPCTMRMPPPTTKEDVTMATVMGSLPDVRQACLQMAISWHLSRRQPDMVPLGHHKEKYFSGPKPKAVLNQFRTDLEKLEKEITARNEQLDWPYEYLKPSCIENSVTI

| SMILES | Potency | activity change, negative = inhibition |
| --- | --- | --- |
| CC(=O)c1cccc(NC(=O)OC[C@H]2C[C@@H]3CCN2C[C@@H]3c2cc(C3CCCC3)nc(-c3ccncc3)n2)c1 | inconclusive: 50.1 µM [inhibitor, partial curve, poor fit] |  |
| COCCNC(=O)NC(=O)CCl | inconclusive: 5.01 µM [inhibitor, full curve] |  |
| Cc1ccc(S(=O)(=O)NC[C@H]2C[C@@H]3CCN2C[C@@H]3CN(C)CCc2ccccn2)cc1 | inactive |  |
| COc1cccc(CNCCc2ccc(Cl)cc2)c1 | inconclusive: 1.12 µM [inhibitor, full curve] |  |
| CN1CCCC1c1ccc(=O)[nH]c1 (centres undefined) | inactive |  |
| COc1cccc(CCNCc2cccc(C(F)(F)F)c2)c1 | inconclusive: 0.891 µM [inhibitor, full curve, poor fit] |  |
| CCC(C)NC(=O)c1c(N)n(CCCOC)c2nc3ccccc3nc12 (centres undefined) | inactive |  |
| CCOC(=O)c1c(N)n(Cc2ccco2)c2nc3ccccc3nc12 | inactive |  |
| c1ccc(N2CCC3(CCNCC3)CC2)nc1 | inconclusive: 35.5 µM [inhibitor, single point] |  |
| Cc1ccc(C)c(NP(=O)(Oc2ccccc2)Oc2ccccc2)c1 | inactive |  |
| C[S+](=O)([O-])N1C2CCC1CN(Cc1cccnc1)C2 |  | inactive: 5.39% [at 12.5 µM] |
| COc1cc2c(cc1OC)C1C(=O)c3ccc4c(c3OC1CO2)CC(C(C)C)O4 (centres undefined) | inactive |  |
| C=CCn1cc(C=C2C(=O)NC(=O)NC2=O)c2ccccc21 | inconclusive: 39.8 µM [inhibitor, partial curve, poor fit] |  |
| Cc1cc(C)n(CCOC(=O)C2C(C=C(Cl)Cl)C2(C)C)n1 (centres undefined) | inconclusive: 44.7 µM [inhibitor, single point] |  |
| N#CCCn1cc(C(=O)NCc2ccccc2)c(-c2ccccc2)n1 | inactive |  |
| C[N+](C)(C)CC1CCC1 | active: 28.2 µM |  |
| O=C(NC[C@H]1C[C@@H]2CCN1C[C@@H]2CN1CCOCC1)c1ccc(C(F)(F)F)cc1 | inactive |  |
| CCOCCCNC(=O)CCl | inactive |  |
| CCN1CCN(CC(=O)c2c(C)n(Cc3ccccc3)c3ccc(OC)cc23)CC1 | inactive |  |
| CC(Cl)C(=O)NC(C)(C)C (centres undefined) | inactive |  |
| Oc1cc(Cl)c(Cl)cc1Cl | inconclusive: 89.1 µM [inhibitor, single point] |  |
| O=C1NC(=O)C2(CCCc3ccc(N(CCCl)CCCl)cc32)N1 (centres undefined) | inconclusive: 63.1 µM [inhibitor, partial curve, poor fit] |  |
| Cc1cc2ccccc2n1CC(=O)NCC1(CC(=O)O)CCCCC1 | inconclusive: 0.501 µM [inhibitor, full curve, poor fit] |  |

Some values from above.
Value of O=C1NC(=O)C2(CCCc3ccc(N(CCCl)CCCl)cc32)N1 (centres undefined) under Potency: inconclusive: 63.1 µM [inhibitor, partial curve, poor fit]
Value of C[N+](C)(C)CC1CCC1 under Potency: active: 28.2 µM
Value of COc1cccc(CNCCc2ccc(Cl)cc2)c1 under Potency: inconclusive: 1.12 µM [inhibitor, full curve]
Value of C[S+](=O)([O-])N1C2CCC1CN(Cc1cccnc1)C2 under activity change, negative = inhibition: inactive: 5.39% [at 12.5 µM]
Value of Cc1ccc(S(=O)(=O)NC[C@H]2C[C@@H]3CCN2C[C@@H]3CN(C)CCc2ccccn2)cc1 under Potency: inactive

Later entries:

| SMILES | Potency | activity change, negative = inhibition |
| --- | --- | --- |
| O=C(Nc1nc2ccccc2s1)c1cccn(Cc2ccccc2)c1=O | inconclusive: 126 µM [inhibitor, single point] |  |
| COc1ccc(CC2(CCc3ccncc3)C(=O)NC(=O)NC2=O)c(OC)c1 | inconclusive: 0.282 µM [inhibitor, full curve, poor fit] |  |
| [N-]=[N+]=NCc1cn2cccnc2n1 | inactive |  |
| COCCn1c(O)c(/C=N/NC(=O)CSC(=S)N2CCCC2)c(=O)[nH]c1=S | inconclusive: 79.4 µM [inhibitor, partial curve, poor fit] |  |
| Cc1o[nH]c(=O)c1C[C@H](N)C(=O)O | inconclusive: 1.12 µM [inhibitor, full curve, poor fit] and inconclusive: 708 nM [inhibitor, full curve, poor fit] and inconclusive: 447 nM [inhibitor, full curve, poor fit] |  |
| O=[N+]([O-])c1ccc(N2CCNCC2)cc1N1CCCCCC1 | inconclusive: 22.4 µM [inhibitor, partial curve, poor fit] |  |
| O=C1NC(=O)[C@]2(Cc3ccccc3N3CCN(c4ccccc4)CC32)C(=O)N1c1ccccc1 (some centres undefined) | inconclusive: 3.16 µM [inhibitor, full curve, poor fit] |  |
| Cc1ccccc1CN1Cc2cnnn2-c2ccccc2C1C#N (centres undefined) | inconclusive: 44.7 µM [inhibitor, partial curve, poor fit] |  |
| COC(=O)C1=C(c2cc3ccccc3s2)C[C@@H]2CC[C@H]1N2C(=O)NCc1ccccc1 | inconclusive: 2.24 µM [inhibitor, full curve, poor fit] |  |
| CC(=NCCC1=CCCCC1)c1c(O)n(C)c(=O)n(C)c1=O | inconclusive: 35.5 µM [inhibitor, single point] |  |
| Cc1[nH]c2ccccc2c1CN1CCCCC1 | inconclusive: 22.4 µM [inhibitor, full curve] |  |
| Fc1ccc(-c2ccc(CNC3CN4CCC3CC4)o2)cc1Cl (centres undefined) | inconclusive: 31.6 µM [inhibitor, partial curve, poor fit] |  |
| CC(O)(CS(=O)(=O)c1cccc(C(F)(F)F)c1)C(=O)Nc1cccc(C(F)(F)F)c1 (centres undefined) | inconclusive: 126 µM [inhibitor, single point] |  |
| O=C(COc1ccc(Cl)cc1)N1CCN(C2CCCC2)CC1 | inconclusive: 1.41 µM [inhibitor, full curve] |  |
| COc1cc2c(cc1Oc1ccccc1)NC(=O)C21CCN(C(=O)c2cccc(O)c2)CC1 | inconclusive: 56.2 µM [inhibitor, partial curve, poor fit] |  |
| Cc1cccc(N=Cc2c(O)n(-c3ccccc3C)c(=O)[nH]c2=O)c1 | inactive |  |
| CCN1C(=O)C(=C/C=C/c2ccco2)C(=O)N(CC)C1=S | inconclusive: 11.2 µM [inhibitor, full curve, poor fit] |  |
| COc1ccccc1N1CCN(Cc2ccc3c(c2)OCO3)CC1 | active: 0.708 µM |  |
| O=C1CC(N2CC=C(c3ccc(F)cc3)CC2)C(=O)N1c1ccc(F)cc1 (centres undefined) | inconclusive: 15.8 µM [inhibitor, partial curve, poor fit] |  |
| CC(=O)c1ccc2c(c1)C1C(Cl)C(Sc3ccccc3[N+](=O)[O-])CC1C(C(=O)O)N2 (centres undefined) | active: 11.2 µM |  |
| CC=C(CC)C1(CCC)C(=O)NC(=S)NC1=O | inconclusive: 50.1 µM [inhibitor, partial curve, poor fit] |  |
| NS(=O)(=O)c1ccc(N=Nc2c(O)[nH]c(=S)[nH]c2=O)cc1 | active: 39.8 µM |  |
| CC(C)[C@]12O[C@@H]1[C@@H]1O[C@]13[C@]1(O[C@H]1C[C@@H]1C4=C(CC[C@@]13C)C(=O)OC4)[C@H]2O | inactive |  |

| SMILES | Potency | activity change, negative = inhibition |
| --- | --- | --- |
| CCOc1ccc(CN(CCc2ccc3c(c2)OCO3)Cc2cccc(Br)c2)cc1 | inconclusive: 20 µM [inhibitor, partial curve, poor fit] |  |
| CCC1CO/C(=C(\C(Cl)=C(Cl)Cl)[N+](=O)[O-])N1Cc1ccc(Cl)nc1 (centres undefined) | inconclusive: 6.31 µM [inhibitor, full curve, poor fit] |  |
| C#C[C@H]1CN2CC[C@H]1C[C@@H]2CNS(=O)(=O)c1cccc(F)c1 | inactive |  |
| CCC(=NC(C)c1ccccc1)c1c(O)[nH]c(=O)[nH]c1=O (centres undefined) | inactive |  |
| CC12CC[C@H]3[C@@H](CCC4(O)C[C@H](O)CCC34/C=N/NC(=O)c3ccc(O)cc3)C1(O)CCC2C1=CC(=O)OC1 (some centres undefined) | inactive |  |
| O=P(N1CC1)(N1CC1)N1CCc2ccccc21 | inactive |  |
| C[C@@H]1O[C@@H](O[C@@H]2C=C3CCC4C(CC[C@]5(C)[C@@H](c6ccc(=O)oc6)CC[C@]45O)[C@@]3(C)CC2)[C@H](O)[C@H](O)[C@H]1O (some centres undefined) | inactive |  |
| Cc1ccc2c(c1)C(SCC(=O)Nc1ccccc1C(=O)O)c1ccccc1O2 (centres undefined) | inconclusive: 44.7 µM [inhibitor, partial curve, poor fit] |  |
| C[N+]12CCC(CC1)C(C(O)(c1ccccc1)c1cccs1)C2 (centres undefined) | active: 44.7 µM |  |
| O=C(COc1ccc(Cl)cc1)N(c1ccccc1Cl)C1CN2CCC1CC2 (centres undefined) | inconclusive: 100 µM [inhibitor, partial curve, poor fit] |  |
| O=C(N/N=C/c1c(O)n(-c2ccccc2)c(=S)[nH]c1=O)c1ccccc1 | inactive |  |
| CN1c2ccc([N+](=O)[O-])cc2CC2(C(=O)NC(=O)NC2=O)C1c1ccccc1 (centres undefined) | inconclusive: 63.1 µM [inhibitor, partial curve, poor fit] |  |
| O=C(COc1ccccc1)N1[C@H]2CC[C@@H]1c1cnc(-c3ccc(F)cc3)nc1C2 | inactive |  |
| CCCCn1c(O)c(C(CC)=Nc2ccc(C(=O)O)cc2)c(=O)[nH]c1=O | inconclusive: 31.6 µM [inhibitor, partial curve, poor fit] |  |
| O=[N+]([O-])/C=C1\NCCN1Cc1ccc(Cl)nc1 | inconclusive: 100 µM [inhibitor, partial curve, poor fit] |  |
| CCOC(=O)c1cccc(C2=C(CNC(=O)c3cccnc3)[C@H]3CC[C@@H](C2)N3Cc2ccccc2)c1 | inactive |  |
| Fc1ccc(N2CCN(Cc3ccc4c(c3)OCO4)CC2)cc1 | inconclusive: 3.16 µM [inhibitor, full curve, poor fit] |  |
| N#CC1=C(N)Oc2nc(SCc3ccccc3)nc(N)c2C1c1ccccc1F (centres undefined) | inconclusive: 50.1 µM [inhibitor, partial curve, poor fit] |  |
| Cc1ccc(NP(=O)(Nc2ccc(C)cc2)Oc2ccccc2)cc1 | inconclusive: 56.2 µM [inhibitor, partial curve, poor fit] |  |
| CCC(C)n1c(C)cc(C(N)=O)c1C (centres undefined) | inactive |  |
| Oc1c(Br)cc(Br)cc1CN1CCN(Cc2ccccc2)CC1 | inactive |  |
| Cc1ccc(C(C)C)c(OCC#CCN2CCCC2)c1 | inconclusive: 4.47 µM [inhibitor, full curve, poor fit] |  |
| CCOC(=O)[C@]12Cc3cc(OC)ccc3[C@H]1N(CC(=O)OC)C(=O)c1cc(OC)ccc12 | inactive |  |
